# Results deposited as PubChem BioAssay AID493246 (Drosophila RNAi Screening Center, 2011).
# Purpose: 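Genome-wide search for dsRNAs that reduce cell number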 (primary screen)
# System: Drosophila Kc and S2R+ cells
# Reagents: long dsRNA against Drosophila genes
# Detection: 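Cell number per well after knock-down, printed as raw plate values; calls were based on per-plate z-scores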
# Direction: Kc cell number and S2R+ cell number: higher = more cells remaining
# Hit rule: 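Counted as a hit if cell number falls by a z-score of at least 3 within its plate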
# The deposit covers about 21,000 reagents; this is a random part of those with a known target gene and a result. Over the whole deposit, 429 (2%) got an active call. 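Values are raw and not normalised between plates; calls rest on per-plate z-scores that were not deposited.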 Entries without a mark were called inactive. Names joined by + are all predicted targets of the reagent. Not stated in the record: the amount of reagent, the time to read-out.
Target gene,dsRNA,"Kc cell number, rep 1","Kc cell number, rep 2","S2R+ cell number, rep 1","S2R+ cell number, rep 2"
asRNA:CR33945,DRSC14080,1.34e6,1.67e6,1.10e6,1.19e6
E(spl)m6-BFM,DRSC16993,1.43e6,1.49e6,1.03e6,1.11e6
dgt6,DRSC14424,5.31e5,,6.79e5,
Or82a,DRSC11996,1.71e6,1.92e6,1.26e6,1.37e6
Tie,DRSC08104,1.81e6,1.74e6,9.72e5,1.14e6
Tie,DRSC08702,1.55e6,1.62e6,1.20e6,1.22e6
CG31823,DRSC01887,1.54e6,1.62e6,1.25e6,1.40e6
Dus4,DRSC02066,1.27e6,1.35e6,1.28e6,1.25e6
Oat,DRSC11043,1.51e6,1.60e6,1.29e6,1.31e6
Chi,DRSC04602,1.31e6,1.42e6,1.08e6,1.11e6
CG34011,DRSC00888,1.48e6,1.50e6,1.02e6,1.05e6
CG4911,DRSC10456,1.23e6,1.41e6,1.25e6,1.11e6
Cp190,DRSC16607,1.68e6,1.78e6,1.31e6,1.42e6
CG13907,DRSC08377,1.32e6,1.35e6,1.13e6,1.12e6
CG5225,DRSC15742,1.38e6,1.54e6,1.04e6,1.17e6
Cyp6a15Psi,DRSC07377,1.49e6,1.60e6,1.28e6,1.43e6
Obp56i,DRSC05812,6.26e5,,7.46e5,
Nup44A,DRSC07248,1.28e6,1.32e6,9.81e5,1.08e6
r,DRSC19813,1.48e6,1.45e6,1.08e6,1.14e6
r,DRSC19814,1.43e6,1.47e6,1.03e6,1.08e6

Records listed so far whose gene name starts with D or d (2):
Target gene,dsRNA,"Kc cell number, rep 1","Kc cell number, rep 2","S2R+ cell number, rep 1","S2R+ cell number, rep 2"
dgt6,DRSC14424,5.31e5,,6.79e5,
Dus4,DRSC02066,1.27e6,1.35e6,1.28e6,1.25e6

The results go on:
Target gene,dsRNA,"Kc cell number, rep 1","Kc cell number, rep 2","S2R+ cell number, rep 1","S2R+ cell number, rep 2"
wat,DRSC14854,1.72e6,1.79e6,1.11e6,1.24e6
Jheh2,DRSC06530,1.75e6,1.69e6,1.23e6,1.38e6
ppk9,DRSC04134,1.68e6,1.74e6,1.27e6,3.34e5
ppk9,DRSC04135,1.64e6,1.71e6,1.24e6,4.28e5
CG13101,DRSC02201,1.31e6,1.45e6,1.12e6,1.14e6
smp-30,DRSC17059,1.39e6,1.51e6,1.12e6,1.24e6
form3,DRSC10195,1.58e6,1.29e6,1.25e6,1.21e6
form3,DRSC10297,1.31e6,1.38e6,1.27e6,1.16e6
form3,DRSC11024,1.37e6,1.51e6,1.15e6,1.26e6
CG7407,DRSC11824,1.46e6,1.50e6,1.32e6,1.31e6
CG18787 + CG18789,DRSC02698,1.54e6,1.65e6,1.19e6,1.41e6
CG17260,DRSC00497,1.34e6,1.39e6,1.11e6,1.26e6
CG18335,DRSC06723,1.54e6,1.53e6,1.23e6,1.36e6
CG14606,DRSC12550,1.48e6,1.44e6,1.37e6,1.43e6
CG5953,DRSC01546,1.36e6,1.36e6,9.39e5,1.13e6
CG5953,DRSC02914,1.17e6 (active),1.29e6,7.97e5,9.81e5
CG3739,DRSC15510,1.40e6,1.34e6,1.12e6,1.23e6
CG43672,DRSC19452,1.49e6,1.50e6,1.07e6,1.14e6
CG43672,DRSC20108,1.38e6,1.40e6,1.03e6,1.12e6
Blos2,DRSC10147,1.49e6,1.58e6,1.19e6,1.27e6
CG9029,DRSC03129,1.60e6,1.26e6,1.10e6,1.23e6
CG1265,DRSC08288,1.40e6,1.48e6,1.05e6,1.18e6
lncRNA:CR32553,DRSC19229,1.13e6,1.46e6,1.08e6,1.11e6
Nadsyn,DRSC20222,5.92e5,,9.47e5,
CG31041,DRSC13951,1.02e6,1.51e6,1.13e6,1.08e6
UbcE2H,DRSC18221,5.89e5,,9.17e5,
Cyp4d21,DRSC03305,1.19e6,1.27e6,6.19e5,9.35e5
CG13856,DRSC14706,1.26e6,1.25e6,1.15e6,1.22e6
cv-d,DRSC16522,1.52e6,1.60e6,1.16e6,1.26e6
cv-d,DRSC16524,1.45e6,1.49e6,9.59e5,1.08e6
cv-d,DRSC16526,1.27e6,1.35e6,1.07e6,1.21e6
CG31431,DRSC14589,1.27e6,1.29e6,1.15e6,1.22e6
mri,DRSC08259,1.32e6,1.34e6,1.16e6,1.20e6
CG15864,DRSC15122,1.55e6,1.63e6,1.32e6,1.50e6
CG34325,DRSC19802,1.40e6,1.45e6,1.07e6,1.13e6
CG34325,DRSC20200,1.48e6,1.50e6,1.05e6,1.12e6
Naxd,DRSC09722,1.57e6,1.55e6,1.33e6,1.50e6
CG2182,DRSC12308,1.45e6,1.49e6,1.21e6,1.26e6
CG2841,DRSC17699,1.44e6,1.43e6,1.07e6,1.22e6
CG2841,DRSC18824,1.49e6,1.45e6,1.04e6,1.10e6
